From paper PMC4930906 (The Korean Journal of Physiology & Pharmacology : Official …, 2016) come the findings set out here.

The target of one test is T1, TRESK (Mus musculus, UniProt Q6VV64).
T1 sequence (Q6VV64 1-394): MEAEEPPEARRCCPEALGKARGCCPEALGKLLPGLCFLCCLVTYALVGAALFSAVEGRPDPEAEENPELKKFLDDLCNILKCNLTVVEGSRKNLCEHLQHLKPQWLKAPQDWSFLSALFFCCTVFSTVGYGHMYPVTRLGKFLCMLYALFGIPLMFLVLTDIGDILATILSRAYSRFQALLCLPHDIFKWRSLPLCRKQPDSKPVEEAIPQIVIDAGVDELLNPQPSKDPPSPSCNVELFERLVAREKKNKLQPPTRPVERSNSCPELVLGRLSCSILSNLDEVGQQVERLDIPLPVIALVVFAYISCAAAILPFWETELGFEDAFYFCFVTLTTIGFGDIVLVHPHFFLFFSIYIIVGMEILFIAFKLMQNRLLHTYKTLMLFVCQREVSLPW
Description: whole-cell patch clamp, HEK293, voltage ramp, current at +[…] mV. The test is classed as cell-based.

The next test concerns the target T2, TREK-2 (Rattus norvegicus, UniProt Q9JIS4).
T2 sequence (Q9JIS4 1-538): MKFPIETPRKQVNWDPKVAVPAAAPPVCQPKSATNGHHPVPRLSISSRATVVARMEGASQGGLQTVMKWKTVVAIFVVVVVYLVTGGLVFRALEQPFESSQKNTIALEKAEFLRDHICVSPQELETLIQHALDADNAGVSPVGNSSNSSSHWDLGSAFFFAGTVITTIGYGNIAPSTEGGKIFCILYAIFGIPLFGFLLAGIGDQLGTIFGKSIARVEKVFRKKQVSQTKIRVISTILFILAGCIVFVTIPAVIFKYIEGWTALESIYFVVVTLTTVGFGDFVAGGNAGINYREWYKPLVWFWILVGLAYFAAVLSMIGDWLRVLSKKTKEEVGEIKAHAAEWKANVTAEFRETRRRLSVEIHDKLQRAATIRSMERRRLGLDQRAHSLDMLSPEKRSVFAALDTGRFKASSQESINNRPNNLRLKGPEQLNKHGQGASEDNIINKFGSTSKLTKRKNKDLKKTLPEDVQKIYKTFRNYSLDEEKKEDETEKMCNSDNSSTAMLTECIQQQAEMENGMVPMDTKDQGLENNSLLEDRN
The test is described as above. It is filed as cell-based.

In general, IC50 refers to the midpoint of a concentration-inhibition curve. Low values mean inhibition by little substance, high ones a need for much substance. `CNCCC(Oc1ccc(C(F)(F)F)cc1)c1ccccc1` (centres unmarked) [fluoxetine]: the IC50 against TRESK amounted to 17 ± 5 µM; at TREK-2 it was 31 ± 7 µM.
